Measurements from US7385039B2, “Methods and compositions for regulating imidazoline receptors” (priority 1998, dated 2008).
Some entries share one result that the patent states for a list of compounds.

Test system: I3R
Assay: I3R model: insulin release from rat islets of Langerhans
Type: cell-based
Conditions: direct stimulation experiments in rats
Protocol: Islets of Langerhans from male Wistar rats were isolated by collagenase digestion in a medium of bicarbonate-buffered physiological saline solution containing 4 mM D-glucose and 1 mM CaCl2. Islets were selected under a binocular dissecting microscope and were used within two hours of isolation. Islets from humans were isolated from heart-beating cadaver organ donors by collagenase digestion and density gradient centrifugation (Chan, S. L. F., et al., 1997, Brit. J. Pharmacol. 120:926-932).
Incubations were done in 96-well plates. Isolated islets were incubated in 100 μl buffer solution supplemented with bovine serum albumin in humidified air: CO2 (95:5%) at 37° C. in the presence of test agents. To eliminate any potential alpha-2 responses, yohimbine (10 μM), a potent alpha2-adrenergic blocker, was included in all incubations. After 60 min incubation, samples of medium were removed for measurement of insulin release by radioimmunoassay using anti-bovine insulin antiserum. […]
I3R model: Insulin release from pancreas (Eglen, R. M., Hudson, A. L., Kendall, D. A., Nutt, D. J., Morgan, N. G., Wilson, V. G. & Dillon, M. P. (1998) TIPS 19, 381-390; Chan, S. L. F. (1998) Gen. Pharmacol. 31, 525-529; Morgan, N. G. (1999) Exp. Opin. Invest. Drugs 8, 575-584). […] After incubation, insulin levels in supernatants were analyzed by RIA. […]

Row | Compound | concentration at which effective on insulin release
1 | O=C(O)Cc1cn([C@@H]2O[C@H](CO)[C@@H](O)[C@H]2O)cn1 [IAA-R, 1-(β-D-ribofuranosyl)-imidazole-4-acetic acid] | ≥ 10 nM
2 | O=C(O)Cc1cn(C2OC(COP(=O)(O)O)C(O)C2O)cn1 [IAA-RP, 1-(β-D-ribofuranosyl)-imidazole-4-acetic acid 5′ phosphate] | ≥ 10 nM
